The test system of the test is L1210 leukemia ip in BDF1 mice, survival T/C. Nature of the test: NCI In Vivo Anticancer Drug Screen. Data for tumor model L1210 Leukemia (intraperitoneal) in B6D2F1 (BDF1) mice. The settings on record: T/C endpoint: mean survival time, higher T/C = longer survival.
Setting [1] is: dose: 400.0 mg/kg/injection, schedule: Q04DX003 (ip), vehicle: Klucel (hydroxypropylcellulose) (HPC).
The mark [2] stands for this setting: dose: 400.0 mg/kg/injection, schedule: Q01DX009 (ip), vehicle: Klucel (hydroxypropylcellulose) (HPC).
[3] abbreviates: dose: 400.0 mg/kg/injection, schedule: Q04DX002 (ip), vehicle: saline.
[4] abbreviates: dose: 200.0 mg/kg/injection, schedule: Q04DX003 (ip), vehicle: Klucel (hydroxypropylcellulose) (HPC).
Where [5] appears, read: dose: 200.0 mg/kg/injection, schedule: Q04DX003 (ip), vehicle: saline with Tween-80.
Setting [6] is: dose: 400.0 mg/kg/injection, schedule: Q04DX003 (ip), vehicle: saline with Tween-80.

Each structure is given as a SMILES string. The list shows only some results of the screen, not a fair sample: it gathers tests that were run many times, whatever their T/C, doses with no T/C, and many T/C values between a quarter and a half above the control. Other doses and runs of a compound stand elsewhere. T/C gives the treated animals as a percentage of the vehicle group. Some doses have a count of surviving animals in place of a T/C: the source files T/C as zero there, which appears to mark a toxic dose or a test without result, not a measured value. Some survivor counts are full or nearly so, which does not show that the dose was tolerated: the source hardly ever lists a survival T/C far under the control, and the zero likely stands for such cases as well. Survivors were counted at the toxicity check, usually on the fifth day, unless a day is given; later deaths do not show. Schedules are NCI's codes, taken here to give the interval after Q, in days (D) or hours (H), and the number of doses after X. Some schedule codes hold Z or #, which are not explained here. Some structures stand for samples that the source files as different forms (salt, stereo form or complex); doses refer to the form tested. Signs of the kind (2×) say how often a value occurs here. Where survival is the endpoint, the PubChem record calls one and a half times the control and up active, and a quarter to a half above the control has no call in these data; cut-offs in other NCI protocols can differ. Some T/C values are followed by the survivors on the day toxicity was checked, most often the fifth; where none is given, no animal had died by that day.

Consider `CCOC(=O)NNC(=S)Nc1cccc(C(F)(F)F)c1`, for which the survivor count (dose: 400.0 mg/kg/injection, schedule: Q04DX002 (ip), vehicle: saline with Tween-80) is 1 of 3.
As to `O=C(OCc1ccccc1CN1CCOCC1)c1cccc(Br)c1`, for the setting “dose: 100.0 mg/kg/injection, schedule: Q04DX002 (ip), vehicle: Klucel (hydroxypropylcellulose) (HPC)”, the T/C was 141 % of control.
Turning to `Cc1ccc2c(c1)c(C)cc(=O)n2C`, the survivor count (dose: 400.0 mg/kg/injection, schedule: Q01DX001 (ip), vehicle: other) is 2 of 4.
On to `O=S(=O)(O)c1ccc(-c2ccccc2)cc1`, for which the survivor count by setting is: (dose: 200.0 mg/kg/injection, schedule: Q01DX009 (ip), vehicle: Klucel (hydroxypropylcellulose) (HPC)) 2 of 6; under setting [1], 3 of 6.
As for `NCc1c(Cl)cccc1[N+](=O)[O-]`, the survivor count is 0 of 6 under setting [2]; 1 of 6 (dose: 400.0 mg/kg/injection, schedule: Q04DX002 (ip), vehicle: Klucel (hydroxypropylcellulose) (HPC)); 0 of 3 under setting [3].
In the case of `C=CCOc1ccc2c(cc1=O)C(NC(C)=O)CCc1cc(OC)c(OC)c(OC)c1-2` (centres undefined), the T/C (dose: 18.75 mg/kg/injection, schedule: Q01DX009 (ip), vehicle: Klucel (hydroxypropylcellulose) (HPC)) was 142 % of control. The survivor count runs as follows: (dose: 37.5 mg/kg/injection, schedule: Q01DX009 (ip), vehicle: Klucel (hydroxypropylcellulose) (HPC)) 6 of 6; (dose: 75.0 mg/kg/injection, schedule: Q01DX009 (ip), vehicle: Klucel (hydroxypropylcellulose) (HPC)) 2 of 6.
On to `Nc1cccc(OCCCCCOc2cccc(N)c2)c1`, for which, for the setting “dose: 50.0 mg/kg/injection, schedule: Q01DX009 (ip), vehicle: Klucel (hydroxypropylcellulose) (HPC)”, the survivor count is on record as 3 of 3.
For the compound `Cc1cc(C)c(N)c(Br)c1`, the survivor count is, setting by setting: (dose: 100.0 mg/kg/injection, schedule: Q01DX009 (ip), vehicle: saline with Tween-80) 5 of 6; under setting [4], 3 of 6; under setting [5], 1 of 6; (dose: 400.0 mg/kg/injection, schedule: Q01DX001 (ip), vehicle: Klucel (hydroxypropylcellulose) (HPC)) 0 of 6; under setting [1], 4 of 6; under setting [6], 0 of 6.
As for `CC1Nc2ccccc2NC1C` (centres undefined), the survivor count (dose: 200.0 mg/kg/injection, schedule: Q01DX001 (ip), vehicle: saline) is recorded as 1 of 6 and the survivor count (dose: 400.0 mg/kg/injection, schedule: Q01DX001 (ip), vehicle: saline) is reported as 0 of 6.
On to `CCOP(N)(=O)SC` (centres undefined), for which the survivor count (dose: 10.0 mg/kg/injection, schedule: Q01DX001 (ip), vehicle: saline) was 0 of 6; the survivor count (dose: 20.0 mg/kg/injection, schedule: Q01DX001 (ip), vehicle: saline) is 0 of 6; the survivor count (dose: 40.0 mg/kg/injection, schedule: Q01DX001 (ip), vehicle: saline) was 0 of 6; the survivor count (dose: 75.0 mg/kg/injection, schedule: Q01DX001 (ip), vehicle: saline) is reported as 0 of 6; the survivor count (dose: 80.0 mg/kg/injection, schedule: Q01DX001 (ip), vehicle: saline) is reported as 0 of 6; the survivor count (dose: 150.0 mg/kg/injection, schedule: Q01DX001 (ip), vehicle: saline) is on record as 0 of 6. In addition, the survivor count (dose: 300.0 mg/kg/injection, schedule: Q01DX001 (ip), vehicle: saline) is listed as 0 of 6.
`CCOc1ccc(NC(=O)c2c(Br)c(Br)c(Br)c(Br)c2C(=O)O)cc1`: under setting [2], the survivor count is recorded as 4 of 6.
Turning to `CCC(CC)(Cc1ccccc1)C(=O)NC(=O)NOC`, where the note is “dose: 50.0 mg/kg/injection, schedule: Q01DX Z (ip), vehicle: methylcellulose (MC)”, the survivor count is given as 5 of 6.
Turning to `CCCCSP(=S)(OCC)OCC`, the survivor count under setting [6] is 0 of 6.
Consider `CC(C)CN=C(N)N=C(N)N`, for which the survivor count is 1 of 6 (dose: 200.0 mg/kg/injection, schedule: Q01DX009 (ip), vehicle: water) and 2 of 6 (dose: 400.0 mg/kg/injection, schedule: Q01DX001 (ip), vehicle: water).
Regarding `C#CCOCC(O)C[As](=O)(O)c1cccc(Cl)c1` (centres undefined), the survivor count is 2 of 6 (dose: 25.0 mg/kg/injection, schedule: Q04DX003 (ip), vehicle: saline with Tween-80); 0 of 6 (dose: 50.0 mg/kg/injection, schedule: Q04DX003 (ip), vehicle: saline with Tween-80); 0 of 6 (2×) (dose: 100.0 mg/kg/injection, schedule: Q04DX003 (ip), vehicle: saline with Tween-80); 0 of 6 under setting [5]; 0 of 6 under setting [6].
As to `OCC1OC(n2cnc3c([Se]Cc4ccccn4)ncnc32)C(O)C1O` (centres undefined), the survivor count reads like this: (dose: 25.0 mg/kg/injection, schedule: Q01DX009 (ip), vehicle: saline) 2 of 6; (dose: 50.0 mg/kg/injection, schedule: Q01DX009 (ip), vehicle: saline) 0 of 6; (dose: 100.0 mg/kg/injection, schedule: Q01DX005 (ip), vehicle: saline) 0 of 6; (dose: 100.0 mg/kg/injection, schedule: Q01DX009 (ip), vehicle: saline) 0 of 6; (dose: 200.0 mg/kg/injection, schedule: Q01DX005 (ip), vehicle: saline) 0 of 6.
Consider `C/C(=N/N=C(N)N)c1ccc(Cl)cc1`, for which the survivor count is recorded as 0 of 6 (dose: 60.0 mg/kg/injection, schedule: Q01DX Z (ip), vehicle: carboxymethylcellulose (CMC)); 0 of 6 (dose: 120.0 mg/kg/injection, schedule: Q01DX Z (ip), vehicle: carboxymethylcellulose (CMC)); 4 of 6 (dose: 120.0 mg/kg/injection, schedule: Q01DX Z (oral), vehicle: carboxymethylcellulose (CMC)).
For the compound `CCC1CN2C(=N1)c1ccccc1-c1cc(Cl)ccc12` (centres undefined), the T/C by setting is: (dose: 40.0 mg/kg/injection, schedule: Q01DX009 (ip), vehicle: Klucel (hydroxypropylcellulose) (HPC)) 131 % of control [5 of 6 alive]; (dose: 40.0 mg/kg/injection, schedule: Q01DX009 (ip), vehicle: saline) 138 % of control; (dose: 50.0 mg/kg/injection, schedule: Q01DX009 (ip), vehicle: suspension in saline) 139 % of control. Moreover, the survivor count (dose: 80.0 mg/kg/injection, schedule: Q04DX003 (ip), vehicle: Klucel (hydroxypropylcellulose) (HPC)) is given as 1 of 6; the survivor count (dose: 100.0 mg/kg/injection, schedule: Q04DX003 (ip), vehicle: Klucel (hydroxypropylcellulose) (HPC)) is on record as 6 of 6; the survivor count under setting [4] is given as 0 of 6; the survivor count under setting [1] is recorded as 0 of 6.
On to `CCCCC(=O)N1CCC(C)CC1`, for which, under setting [3], the survivor count is 2 of 3.
Consider `CNC(=O)NC1C(O)C(OC)OC2COC(c3ccccc3)OC21` (centres undefined), for which the survivor count under setting [6] is listed as 6 of 6.

Source of the values: PubChem BioAssay AID248 (DTP/NCI, 2004).
